According to article PMC4728392:
These are yes or no findings as the source states them, for the method shown. In cells and extracts the contact can be indirect. Some results given as binding are weak or reduced against the parent protein; the word gives no strength.

Amino acid sequences for entries named in this document (tags omitted). Residues count along the entry.
UniProt P10809, residues 27-573: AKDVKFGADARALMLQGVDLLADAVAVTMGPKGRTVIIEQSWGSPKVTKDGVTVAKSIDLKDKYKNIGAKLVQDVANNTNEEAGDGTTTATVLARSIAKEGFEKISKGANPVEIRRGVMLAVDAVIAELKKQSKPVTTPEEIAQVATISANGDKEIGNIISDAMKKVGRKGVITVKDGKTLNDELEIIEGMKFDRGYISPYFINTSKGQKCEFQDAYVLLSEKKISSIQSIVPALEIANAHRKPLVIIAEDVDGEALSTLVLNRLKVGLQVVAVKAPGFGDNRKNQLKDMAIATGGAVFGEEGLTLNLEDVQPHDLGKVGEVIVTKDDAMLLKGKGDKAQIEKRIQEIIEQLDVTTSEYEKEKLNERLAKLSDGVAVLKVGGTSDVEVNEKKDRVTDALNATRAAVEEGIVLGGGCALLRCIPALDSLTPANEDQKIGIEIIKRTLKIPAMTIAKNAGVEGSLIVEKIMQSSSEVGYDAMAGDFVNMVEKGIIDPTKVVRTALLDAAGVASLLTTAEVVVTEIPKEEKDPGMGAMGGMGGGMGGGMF

Target: Heat shock protein 60 (UniProt P10809)
Experiment: co-IP; 500 μg protein of total lysate of C2C12 cells transfected with pCMV6-Entry-HSPD1 (pcDNA3.1 as negative control); rabbit polyclonal anti-HSP60 (H-300) overnight at 4 °C, Sepharose A beads, washes with isotonic lysis buffer; blot with anti-PGC1α (ST1202)

binding: binds
B1: peroxisome proliferator-activated receptor gamma coactivator 1 alpha, isoform α1 (113 kDa) (protein, UniProt O70343 1-797)
chain: MAWDMCSQDSVWSDIECAALVGEDQPLCPDLPELDLSELDVNDLDTDSFLGGLKWCSDQSEIISNQYNNEPANIFEKIDEENEANLLAVLTETLDSLPVDEDGLPSFDALTDGAVTTDNEASPSSMPDGTPPPQEAEEPSLLKKLLLAPANTQLSYNECSGLSTQNHAANHTHRIRTNPAIVKTENSWSNKAKSICQQQKPQRRPCSELLKYLTTNDDPPHTKPTENRNSSRDKCASKKKSHTQPQSQHAQAKPTTLSLPLTPESPNDPKGSPFENKTIERTLSVELSGTAGLTPPTTPPHKANQDNPFKASPKLKPSCKTVVPPPTKRARYSECSGTQGSHSTKKGPEQSELYAQLSKSSGLSRGHEERKTKRPSLRLFGDHDYCQSLNSKTDILINISQELQDSRQLDFKDASCDWQGHICSSTDSGQCYLRETLEASKQVSPCSTRKQLQDQEIRAELNKHFGHPCQAVFDDKSDKTSELRDGDFSNEQFSKLPVFINSGLAMDGLFDDSEDESDKLSYPWDGTQPYSLFDVSPSCSSFNSPCRDSVSPPKSLFSQRPQRMRSRSRSFSRHRSCSRSPYSRSRSRSPGSRSSSRSCYYYESSHYRHRTHRNSPLYVRSRSRSPYSRRPRYDSYEAYEHERLKRDEYRKEHEKRESERAKQRERQKQKAIEERRVIYVGKIRPDTTRTELRDRFEVFGEIEECTVNLRDDGDSYGFITYRYTCDAFAALENGYTLRRSNETDFELYFCGRKQFFKSNYADLDTNSDDFDPASTKSKYDSLDFDSLLKEAQRSLRR
